Drawing on publication PMC7038939, this text covers binding signal (fold difference from WT Kd), binding signal (fold weaker than WT) and Kd for one sequence.

Test in all cases: EMSA
Common to all, as to details: recombinant protein; protein details: His-tag removed by TEV
(In general: In EMSA bound probe runs differently from free probe, usually more slowly.)

The subject of data set [1] is DNA gyrase GyrA-4R+ holoenzyme C716R,P762R,S813R,I823R (Escherichia coli).
Data set [2] relates to DNA gyrase GyrA-C716R holoenzyme (Escherichia coli).
Data set [3] concerns DNA gyrase GyrA-R766A holoenzyme (Escherichia coli).
Data set [4] has as its system DNA gyrase WT holoenzyme (GyrA2GyrB2) (Escherichia coli).

For at least one entry, the source does not settle the construct or the ends of the probe. For some of these results: Whether high values mean tight binding is not given here for every scale.

A word on the Kd: it is the concentration at which binding is half-saturated. In the case of “GGGAAACCTGTCGTGCCAGCTGCATTAATGAATCGGCCAACGCGCGGGGAGAGGCGGTTTGCGTATTGGGCGCTCTTCCGCTTCCTCGCTCACTGACTCGCTGCGCTCGGTCGTTCGGCTGCGGCGAGCGGTATCAGCTCACTCAAAGGCGGTAATACGGTTATCCACAGAATCAGGGGATAACGCAGGAAAGAACATGT (double strand) [EMSA DNA substrate (about 200 bp)]”, the binding signal (fold difference from WT Kd) in data set [1] and in data set [2] was under 4 in each case. In addition, in data set [3], the binding signal (fold weaker than WT) turned out to be 20. In data set [4], the dissociation constant (Kd) was determined as 10 nM.
